Source: publication doi:10.1101/2022.12.06.519357
These are yes or no findings as the source states them, for the method shown. Binding seen in cells or lysates may run through a third protein. Some results given as binding are weak or reduced against the parent protein; the word gives no strength.

The chains behind the UniProt entries cited, without tags or fusion partners.
UniProt Q96GY3: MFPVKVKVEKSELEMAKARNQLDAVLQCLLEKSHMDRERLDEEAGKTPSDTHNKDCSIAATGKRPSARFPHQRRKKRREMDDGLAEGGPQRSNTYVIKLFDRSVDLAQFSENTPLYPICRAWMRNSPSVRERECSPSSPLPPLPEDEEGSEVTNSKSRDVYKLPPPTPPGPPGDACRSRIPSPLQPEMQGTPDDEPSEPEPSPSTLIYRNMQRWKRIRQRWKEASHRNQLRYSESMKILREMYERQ
UniProt P10244: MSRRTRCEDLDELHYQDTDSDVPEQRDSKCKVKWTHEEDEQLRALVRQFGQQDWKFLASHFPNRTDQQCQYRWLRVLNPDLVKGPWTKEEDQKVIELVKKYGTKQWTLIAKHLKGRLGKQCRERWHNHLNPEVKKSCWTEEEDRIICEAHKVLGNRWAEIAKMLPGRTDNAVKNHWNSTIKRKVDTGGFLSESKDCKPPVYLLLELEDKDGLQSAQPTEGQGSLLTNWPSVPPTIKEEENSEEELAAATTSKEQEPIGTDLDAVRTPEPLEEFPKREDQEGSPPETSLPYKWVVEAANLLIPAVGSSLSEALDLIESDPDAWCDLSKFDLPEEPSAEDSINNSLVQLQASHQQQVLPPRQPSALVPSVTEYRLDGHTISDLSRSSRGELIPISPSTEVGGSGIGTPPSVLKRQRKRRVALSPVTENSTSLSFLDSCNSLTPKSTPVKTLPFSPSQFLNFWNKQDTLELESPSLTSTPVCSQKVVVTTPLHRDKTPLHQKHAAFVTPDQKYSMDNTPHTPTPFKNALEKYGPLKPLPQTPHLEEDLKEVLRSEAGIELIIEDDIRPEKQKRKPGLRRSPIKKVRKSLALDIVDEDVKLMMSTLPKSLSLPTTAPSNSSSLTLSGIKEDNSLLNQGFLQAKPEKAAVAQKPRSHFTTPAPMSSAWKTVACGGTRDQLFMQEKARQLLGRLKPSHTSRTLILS
UniProt Q5TKA1: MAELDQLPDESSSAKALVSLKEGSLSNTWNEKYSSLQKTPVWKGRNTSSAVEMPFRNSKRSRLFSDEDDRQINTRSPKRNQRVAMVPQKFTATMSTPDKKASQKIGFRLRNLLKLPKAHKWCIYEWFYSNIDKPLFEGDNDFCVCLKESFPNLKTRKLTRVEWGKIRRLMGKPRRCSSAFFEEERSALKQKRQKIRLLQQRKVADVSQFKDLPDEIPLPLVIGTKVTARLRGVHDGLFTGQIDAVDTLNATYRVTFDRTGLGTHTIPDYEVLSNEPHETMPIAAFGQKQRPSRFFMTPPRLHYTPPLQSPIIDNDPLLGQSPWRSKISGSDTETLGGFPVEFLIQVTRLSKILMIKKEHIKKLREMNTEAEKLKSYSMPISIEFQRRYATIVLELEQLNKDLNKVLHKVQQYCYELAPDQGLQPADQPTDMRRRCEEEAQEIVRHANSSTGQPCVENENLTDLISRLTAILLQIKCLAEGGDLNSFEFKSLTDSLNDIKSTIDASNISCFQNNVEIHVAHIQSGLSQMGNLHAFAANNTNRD
UniProt Q08999: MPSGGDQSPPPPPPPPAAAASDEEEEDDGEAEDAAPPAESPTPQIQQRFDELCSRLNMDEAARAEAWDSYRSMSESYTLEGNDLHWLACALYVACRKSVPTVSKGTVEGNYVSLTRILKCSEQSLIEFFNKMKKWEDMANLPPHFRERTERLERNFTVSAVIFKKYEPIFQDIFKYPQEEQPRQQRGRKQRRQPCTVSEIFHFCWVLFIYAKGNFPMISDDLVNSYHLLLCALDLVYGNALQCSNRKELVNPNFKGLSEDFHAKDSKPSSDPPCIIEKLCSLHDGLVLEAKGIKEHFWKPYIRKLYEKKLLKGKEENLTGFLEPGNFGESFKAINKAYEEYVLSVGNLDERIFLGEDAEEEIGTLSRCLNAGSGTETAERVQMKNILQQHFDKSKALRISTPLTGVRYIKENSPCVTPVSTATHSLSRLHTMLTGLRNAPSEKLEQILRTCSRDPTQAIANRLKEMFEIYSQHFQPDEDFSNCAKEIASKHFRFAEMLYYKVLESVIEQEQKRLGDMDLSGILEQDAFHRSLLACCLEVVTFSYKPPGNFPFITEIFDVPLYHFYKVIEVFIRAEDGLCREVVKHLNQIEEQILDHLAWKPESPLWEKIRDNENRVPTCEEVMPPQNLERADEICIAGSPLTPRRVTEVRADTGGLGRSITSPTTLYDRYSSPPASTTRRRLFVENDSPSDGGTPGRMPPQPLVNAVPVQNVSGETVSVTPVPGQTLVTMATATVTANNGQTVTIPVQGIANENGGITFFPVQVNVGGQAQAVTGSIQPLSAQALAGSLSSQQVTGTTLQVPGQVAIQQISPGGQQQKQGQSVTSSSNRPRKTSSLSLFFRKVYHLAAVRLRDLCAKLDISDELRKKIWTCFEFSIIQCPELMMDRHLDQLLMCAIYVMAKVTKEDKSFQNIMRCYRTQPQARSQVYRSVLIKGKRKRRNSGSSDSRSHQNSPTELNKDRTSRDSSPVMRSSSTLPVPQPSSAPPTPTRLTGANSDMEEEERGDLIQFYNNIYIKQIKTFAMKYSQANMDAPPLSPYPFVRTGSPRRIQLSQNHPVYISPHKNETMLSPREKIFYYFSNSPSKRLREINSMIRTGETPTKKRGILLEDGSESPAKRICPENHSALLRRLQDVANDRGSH

Target: LIN37 (human (endogenous in SKOV3 and Kuramochi)) (UniProt Q96GY3)
Experiment: co-IP

Substance | binding
B-MYB (from UniProt P10244 1-700) | binds
LIN9 (from UniProt Q5TKA1 1-542) | binds
p130 (from UniProt Q08999 1-1139) | binds
